The list shows a part of the results.
Compound: Cc1cc(ccc1-c1ccccc1)C(=O)N1CCCN(CC1)C(=O)CCl [compound 10]
Experiment: probe-labelled cysteine peptide fold change vs DMSO (competition) (log2 fold change); higher = less target engagement (more negative = stronger competition)
Conditions: THP-1, incubation time: 4 h
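Note: competitive profiling in live THP-1 cells: cysteine peptides tagged with an iodoacetamide desthiobiotin (IA-DTB) probe, intensity after compound treatment relative to DMSO-treated cells.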

Chains of the proteins cited; added tags and fusions are not shown. Lines headed by an entry give the natural chain unless they say otherwise; changes in a name come on top.
UniProt Q96HC4: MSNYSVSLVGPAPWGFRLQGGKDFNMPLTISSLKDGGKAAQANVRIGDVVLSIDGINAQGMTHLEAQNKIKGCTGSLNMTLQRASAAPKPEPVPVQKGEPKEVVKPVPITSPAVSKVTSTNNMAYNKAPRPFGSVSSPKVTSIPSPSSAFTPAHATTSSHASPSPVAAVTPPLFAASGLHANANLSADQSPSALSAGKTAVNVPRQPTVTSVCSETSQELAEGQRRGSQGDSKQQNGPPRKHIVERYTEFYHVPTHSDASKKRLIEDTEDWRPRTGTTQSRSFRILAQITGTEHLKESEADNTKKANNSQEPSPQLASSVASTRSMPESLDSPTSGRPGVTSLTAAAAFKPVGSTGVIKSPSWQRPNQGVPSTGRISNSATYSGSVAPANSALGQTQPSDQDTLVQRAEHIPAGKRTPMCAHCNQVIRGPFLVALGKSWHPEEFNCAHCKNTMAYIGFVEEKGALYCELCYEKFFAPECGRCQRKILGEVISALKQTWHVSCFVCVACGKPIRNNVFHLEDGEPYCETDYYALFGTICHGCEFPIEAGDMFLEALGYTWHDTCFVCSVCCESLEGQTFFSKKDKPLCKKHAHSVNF
UniProt Q15365, whole entry, looked up: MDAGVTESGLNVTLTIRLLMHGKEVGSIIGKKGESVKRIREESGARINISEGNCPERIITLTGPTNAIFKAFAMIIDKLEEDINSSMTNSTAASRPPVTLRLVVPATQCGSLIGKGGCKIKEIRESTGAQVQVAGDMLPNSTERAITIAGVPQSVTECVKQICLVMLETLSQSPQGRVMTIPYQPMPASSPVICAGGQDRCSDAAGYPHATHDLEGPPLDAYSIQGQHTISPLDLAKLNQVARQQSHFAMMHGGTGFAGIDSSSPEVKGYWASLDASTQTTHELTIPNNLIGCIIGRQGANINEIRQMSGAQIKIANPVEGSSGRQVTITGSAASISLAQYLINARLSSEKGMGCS
UniProt Q8NCN5: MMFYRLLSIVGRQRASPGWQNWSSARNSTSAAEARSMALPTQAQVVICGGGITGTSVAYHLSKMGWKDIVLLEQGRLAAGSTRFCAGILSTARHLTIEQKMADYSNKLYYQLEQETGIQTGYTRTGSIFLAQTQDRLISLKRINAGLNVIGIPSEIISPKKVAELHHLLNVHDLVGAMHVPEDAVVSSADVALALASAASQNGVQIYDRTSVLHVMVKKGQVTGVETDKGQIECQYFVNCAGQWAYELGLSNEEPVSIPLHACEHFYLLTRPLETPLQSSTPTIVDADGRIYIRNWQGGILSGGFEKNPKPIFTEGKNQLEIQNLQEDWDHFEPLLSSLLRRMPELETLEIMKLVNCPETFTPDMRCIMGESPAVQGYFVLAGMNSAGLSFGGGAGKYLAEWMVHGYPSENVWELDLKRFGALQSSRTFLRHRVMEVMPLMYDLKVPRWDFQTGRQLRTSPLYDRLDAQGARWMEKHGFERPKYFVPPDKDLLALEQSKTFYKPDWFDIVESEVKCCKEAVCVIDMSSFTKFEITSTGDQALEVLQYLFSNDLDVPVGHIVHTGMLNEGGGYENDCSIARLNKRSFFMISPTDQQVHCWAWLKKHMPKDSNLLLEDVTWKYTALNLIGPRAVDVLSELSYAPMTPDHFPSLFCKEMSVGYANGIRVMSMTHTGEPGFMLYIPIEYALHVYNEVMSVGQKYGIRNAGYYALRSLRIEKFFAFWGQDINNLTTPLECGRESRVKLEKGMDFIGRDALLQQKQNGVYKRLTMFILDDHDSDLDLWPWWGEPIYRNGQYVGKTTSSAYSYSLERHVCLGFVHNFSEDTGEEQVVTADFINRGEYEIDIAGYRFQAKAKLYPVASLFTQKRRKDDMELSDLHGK
UniProt Q9BVG4: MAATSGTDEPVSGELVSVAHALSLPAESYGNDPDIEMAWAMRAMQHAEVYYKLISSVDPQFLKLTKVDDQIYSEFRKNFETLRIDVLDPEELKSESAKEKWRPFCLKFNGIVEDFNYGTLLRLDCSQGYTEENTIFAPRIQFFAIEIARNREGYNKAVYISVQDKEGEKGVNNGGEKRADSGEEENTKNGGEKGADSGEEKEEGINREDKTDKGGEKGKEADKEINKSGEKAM
UniProt Q6L8Q7: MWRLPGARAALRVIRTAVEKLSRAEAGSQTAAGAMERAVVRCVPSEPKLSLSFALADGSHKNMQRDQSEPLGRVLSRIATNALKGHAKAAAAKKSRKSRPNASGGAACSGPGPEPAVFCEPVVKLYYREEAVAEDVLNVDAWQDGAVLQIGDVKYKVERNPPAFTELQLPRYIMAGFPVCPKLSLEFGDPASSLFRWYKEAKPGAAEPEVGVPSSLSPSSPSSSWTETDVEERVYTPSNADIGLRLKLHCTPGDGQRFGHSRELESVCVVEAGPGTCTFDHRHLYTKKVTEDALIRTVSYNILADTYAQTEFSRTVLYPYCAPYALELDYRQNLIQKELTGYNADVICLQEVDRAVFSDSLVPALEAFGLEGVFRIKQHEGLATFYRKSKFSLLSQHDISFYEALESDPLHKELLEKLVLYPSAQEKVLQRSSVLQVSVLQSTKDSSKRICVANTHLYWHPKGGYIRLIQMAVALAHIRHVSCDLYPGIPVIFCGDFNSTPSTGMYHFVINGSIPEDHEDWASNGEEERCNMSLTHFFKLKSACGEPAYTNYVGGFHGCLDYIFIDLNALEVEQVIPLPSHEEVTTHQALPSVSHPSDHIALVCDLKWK
UniProt O94913, whole entry, looked up: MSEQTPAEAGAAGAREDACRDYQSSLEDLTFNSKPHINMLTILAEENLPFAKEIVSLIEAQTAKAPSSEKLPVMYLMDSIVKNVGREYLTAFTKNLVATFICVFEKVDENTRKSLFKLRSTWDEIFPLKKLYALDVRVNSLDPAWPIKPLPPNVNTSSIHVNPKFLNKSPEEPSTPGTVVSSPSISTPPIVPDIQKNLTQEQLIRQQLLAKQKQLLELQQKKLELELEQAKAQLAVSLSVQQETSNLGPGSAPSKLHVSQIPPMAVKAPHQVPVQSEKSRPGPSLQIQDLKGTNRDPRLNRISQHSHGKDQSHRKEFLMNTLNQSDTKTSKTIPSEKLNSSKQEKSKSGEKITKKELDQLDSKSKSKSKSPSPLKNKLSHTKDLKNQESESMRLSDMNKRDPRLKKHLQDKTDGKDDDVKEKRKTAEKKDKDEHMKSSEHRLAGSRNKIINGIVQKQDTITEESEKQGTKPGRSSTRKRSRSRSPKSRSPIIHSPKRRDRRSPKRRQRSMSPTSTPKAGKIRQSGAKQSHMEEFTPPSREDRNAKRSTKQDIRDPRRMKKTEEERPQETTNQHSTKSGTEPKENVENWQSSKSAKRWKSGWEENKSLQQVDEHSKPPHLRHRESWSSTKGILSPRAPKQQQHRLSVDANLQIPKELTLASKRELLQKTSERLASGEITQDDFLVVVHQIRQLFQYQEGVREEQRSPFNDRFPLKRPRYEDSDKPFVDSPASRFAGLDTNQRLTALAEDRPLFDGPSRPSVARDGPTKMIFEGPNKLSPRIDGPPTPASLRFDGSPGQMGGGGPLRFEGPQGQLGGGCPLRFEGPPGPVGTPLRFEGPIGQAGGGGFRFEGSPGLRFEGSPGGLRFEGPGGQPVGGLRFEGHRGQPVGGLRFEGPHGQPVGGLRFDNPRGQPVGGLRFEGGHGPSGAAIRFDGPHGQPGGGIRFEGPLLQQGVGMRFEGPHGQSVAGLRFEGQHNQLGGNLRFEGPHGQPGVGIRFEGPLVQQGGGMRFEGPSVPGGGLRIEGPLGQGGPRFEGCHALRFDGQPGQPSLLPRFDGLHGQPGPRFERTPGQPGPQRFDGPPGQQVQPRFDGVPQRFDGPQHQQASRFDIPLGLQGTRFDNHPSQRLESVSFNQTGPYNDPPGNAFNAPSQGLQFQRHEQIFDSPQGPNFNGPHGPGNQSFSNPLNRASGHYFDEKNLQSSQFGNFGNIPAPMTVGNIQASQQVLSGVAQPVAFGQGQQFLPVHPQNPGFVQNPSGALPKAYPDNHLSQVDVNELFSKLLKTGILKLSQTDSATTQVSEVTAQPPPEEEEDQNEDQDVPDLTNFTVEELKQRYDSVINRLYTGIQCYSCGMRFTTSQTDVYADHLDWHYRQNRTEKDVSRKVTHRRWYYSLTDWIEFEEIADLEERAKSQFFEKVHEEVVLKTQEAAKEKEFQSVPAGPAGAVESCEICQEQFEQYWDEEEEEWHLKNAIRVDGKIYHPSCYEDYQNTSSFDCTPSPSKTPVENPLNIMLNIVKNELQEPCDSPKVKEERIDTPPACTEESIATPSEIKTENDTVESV
UniProt O15530: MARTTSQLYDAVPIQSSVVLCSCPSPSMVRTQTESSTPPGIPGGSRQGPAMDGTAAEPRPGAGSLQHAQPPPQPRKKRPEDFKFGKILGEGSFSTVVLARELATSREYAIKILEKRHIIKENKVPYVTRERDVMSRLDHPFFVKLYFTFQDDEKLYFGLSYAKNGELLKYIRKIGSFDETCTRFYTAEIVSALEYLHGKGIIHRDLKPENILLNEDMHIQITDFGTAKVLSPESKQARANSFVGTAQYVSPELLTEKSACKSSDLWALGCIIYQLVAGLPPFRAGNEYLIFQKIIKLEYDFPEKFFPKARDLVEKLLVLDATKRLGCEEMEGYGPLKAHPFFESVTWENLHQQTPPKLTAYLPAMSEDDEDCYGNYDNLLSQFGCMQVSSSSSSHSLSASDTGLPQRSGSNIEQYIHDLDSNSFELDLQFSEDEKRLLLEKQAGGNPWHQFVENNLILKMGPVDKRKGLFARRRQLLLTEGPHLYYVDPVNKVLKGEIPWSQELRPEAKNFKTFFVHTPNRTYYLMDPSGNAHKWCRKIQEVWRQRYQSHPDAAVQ
UniProt Q86SE9: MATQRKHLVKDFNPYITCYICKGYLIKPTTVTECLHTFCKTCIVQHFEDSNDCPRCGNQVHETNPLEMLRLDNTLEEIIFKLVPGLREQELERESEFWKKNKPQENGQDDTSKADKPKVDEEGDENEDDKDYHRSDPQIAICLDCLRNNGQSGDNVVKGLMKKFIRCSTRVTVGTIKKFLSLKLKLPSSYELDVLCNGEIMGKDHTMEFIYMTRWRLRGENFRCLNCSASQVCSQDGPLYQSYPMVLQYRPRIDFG
UniProt Q15004: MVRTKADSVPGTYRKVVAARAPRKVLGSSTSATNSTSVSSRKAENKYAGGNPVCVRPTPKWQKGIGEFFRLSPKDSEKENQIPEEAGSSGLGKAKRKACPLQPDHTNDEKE
UniProt Q15366, whole entry, looked up: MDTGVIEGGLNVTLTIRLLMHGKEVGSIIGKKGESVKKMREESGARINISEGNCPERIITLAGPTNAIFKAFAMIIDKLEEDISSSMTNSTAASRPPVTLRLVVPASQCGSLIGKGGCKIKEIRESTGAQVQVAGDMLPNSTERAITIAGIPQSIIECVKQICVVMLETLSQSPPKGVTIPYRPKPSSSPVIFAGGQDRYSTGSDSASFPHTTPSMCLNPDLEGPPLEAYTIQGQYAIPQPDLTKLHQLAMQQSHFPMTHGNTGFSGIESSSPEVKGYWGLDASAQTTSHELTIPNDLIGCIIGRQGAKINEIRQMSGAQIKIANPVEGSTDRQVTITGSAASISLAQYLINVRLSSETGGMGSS
UniProt Q15084: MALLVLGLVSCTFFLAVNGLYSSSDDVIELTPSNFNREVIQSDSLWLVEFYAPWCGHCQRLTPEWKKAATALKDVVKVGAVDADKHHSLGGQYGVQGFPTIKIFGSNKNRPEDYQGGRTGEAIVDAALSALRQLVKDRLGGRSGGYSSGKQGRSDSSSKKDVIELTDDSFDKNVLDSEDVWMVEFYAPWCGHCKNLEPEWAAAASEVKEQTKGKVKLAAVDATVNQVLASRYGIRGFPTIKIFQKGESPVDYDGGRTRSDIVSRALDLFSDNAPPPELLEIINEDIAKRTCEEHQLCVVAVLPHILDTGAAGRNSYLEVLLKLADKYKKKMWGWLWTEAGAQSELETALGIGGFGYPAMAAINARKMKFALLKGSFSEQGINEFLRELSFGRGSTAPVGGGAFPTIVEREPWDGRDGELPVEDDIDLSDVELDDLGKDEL
UniProt P05166: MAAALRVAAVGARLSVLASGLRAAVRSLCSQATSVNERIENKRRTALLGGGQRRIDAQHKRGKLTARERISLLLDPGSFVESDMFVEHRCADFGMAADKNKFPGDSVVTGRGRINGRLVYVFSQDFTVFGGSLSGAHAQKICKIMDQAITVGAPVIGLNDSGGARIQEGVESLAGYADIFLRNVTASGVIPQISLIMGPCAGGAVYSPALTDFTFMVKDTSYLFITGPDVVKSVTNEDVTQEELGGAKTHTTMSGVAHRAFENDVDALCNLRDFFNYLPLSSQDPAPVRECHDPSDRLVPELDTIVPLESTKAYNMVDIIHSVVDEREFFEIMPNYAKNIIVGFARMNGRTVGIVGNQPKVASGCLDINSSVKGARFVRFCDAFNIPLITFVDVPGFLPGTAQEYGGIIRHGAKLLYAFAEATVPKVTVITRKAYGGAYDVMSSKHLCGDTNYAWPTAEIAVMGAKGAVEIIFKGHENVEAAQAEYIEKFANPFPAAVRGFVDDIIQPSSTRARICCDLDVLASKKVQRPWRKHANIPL

| Target | probe-labelled cysteine peptide fold change (10 µM) | probe-labelled cysteine peptide fold change (50 µM) |
| --- | --- | --- |
| PDLIM5_Q96HC4_73_GCTGSLNMTLQR (UniProt Q96HC4) | 0.125 | 0.0393 |
| PDLIM7_Q9NR12_308+311_YLVALGHAYHPEEFVCSQCGK (UniProt Q9NR12) | 0.177 | -0.0825 |
| PCBP1_Q15365_158_AITIAGVPQSVTECVK (UniProt Q15365) | 0.332 | -0.0314 |
| PDPR_Q8NCN5_357_LVNCPETFTPDMR (UniProt Q8NCN5) | -0.0989 | -0.113 |
| PBDC1_Q9BVG4_125_LDCSQGYTEENTIFAPR (UniProt Q9BVG4) | 0.12 | 0.256 |
| PCID2_Q5JVF3_83_CQTVIVQSFLR (UniProt Q5JVF3) | 0.134 | 0.222 |
| PDLIM2_Q96JY6_289_CSTSIANQAVR (UniProt Q96JY6) | 0.11 | -0.59 |
| PDE12_Q6L8Q7_180_YIMAGFPVCPK (UniProt Q6L8Q7) | -0.0396 | -0.16 |
| PDPR_Q8NCN5_735_FFAFWGQDINNLTTPLECGR (UniProt Q8NCN5) | -0.247 | 0.123 |
| PDLIM5_Q96HC4_479_FFAPECGR (UniProt Q96HC4) | -0.0149 | -0.153 |
| PCF11_O94913_102_NLVATFICVFEK (UniProt O94913) | -0.0805 | 0.262 |
| PDE12_Q6L8Q7_268_ELESVCVVEAGPGTCTFDHR (UniProt Q6L8Q7) | -0.138 | 0.206 |
| PDCD6IP_Q8WUM4_691_CSDIVFAR (UniProt Q8WUM4) | -0.00307 | -0.0695 |
| PDPK1_O15530_181_IGSFDETCTR (UniProt O15530) | 0.00296 | 0.209 |
| PDCD7_Q8N8D1_339_GVCPPASADETFTHHLQR (UniProt Q8N8D1) | 0.0422 | 0.472 |
| PDS5A_Q29RF7_1079_LYTVCDVALCVINSK (UniProt Q29RF7) | 0.0414 | -0.159 |
| PCGF5_Q86SE9_42_TCIVQHFEDSNDCPR (UniProt Q86SE9) | 0.0193 | 0.0542 |
| PCLAF_Q15004_99_ACPLQPDHTNDEKE (UniProt Q15004) | 0.0965 | -0.832 |
| PDS5B_Q9NTI5_676_VLSFTHPISFHSAETFESLLACLK (UniProt Q9NTI5) | 0.192 | -0.0917 |
| PDIA3_P30101_244_KFIQENIFGICPHMTEDNK (UniProt P30101) | -0.0467 | -0.176 |
| PBK_Q96KB5_22_SVLCSTPTINIPASPFMQK (UniProt Q96KB5) | -0.0674 | -0.231 |
| PDP1_Q9P0J1_132_SAATCLQTR (UniProt Q9P0J1) | -0.0304 | -0.111 |
| PCYOX1_Q9UHG3_462_LYYLNGIECAASAMEMSAIAAHNAALLAYHR (UniProt Q9UHG3) | 0.129 | 0.308 |
| PCBP2_Q15366_301_GYWGLDASAQTTSHELTIPNDLIGCIIGR (UniProt Q15366) | 0.263 | -0.272 |
| PDIA6_Q15084_291+297_RTCEEHQLCVVAVLPHILDTGAAGR (UniProt Q15084) | -0.134 | -0.282 |
| PCM1_Q15154_783_IQALQTACPDLQLSAASVGNCPTK (UniProt Q15154) | -0.192 | -0.821 |
| PCCB_P05166_448_HLCGDTNYAWPTAEIAVMGAK (UniProt P05166) | -0.00636 | -0.152 |
| PDIA6_Q15084_291_TCEEHQLCVVAVLPHILDTGAAGR (UniProt Q15084) | -0.0313 | -0.147 |
| PCBP2_Q15366_158_AITIAGIPQSIIECVK (UniProt Q15366) | 0.149 | -0.0185 |

Source: the supplement of paper PMC12067093, “Discovery and optimisation of a covalent ligand for TRIM25 and its application to targeted protein ubiquitination” (Chemical Science, 2025)
